Laboratory results taken from the supplement of paper PMC10849652.
This is one part of the list.

Protein sequences, listed by entry. Tags and fused reporters are not part of them. Lines headed by an entry give the natural chain unless they say otherwise; changes in a name come on top.
UniProt Q9H2K0, whole entry, looked up: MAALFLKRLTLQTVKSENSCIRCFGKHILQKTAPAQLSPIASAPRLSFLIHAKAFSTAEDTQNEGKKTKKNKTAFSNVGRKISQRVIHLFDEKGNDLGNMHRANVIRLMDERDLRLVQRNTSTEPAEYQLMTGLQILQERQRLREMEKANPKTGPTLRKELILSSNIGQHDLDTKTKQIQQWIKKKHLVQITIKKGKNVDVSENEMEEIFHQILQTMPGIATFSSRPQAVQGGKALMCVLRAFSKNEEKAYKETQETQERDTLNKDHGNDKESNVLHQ
UniProt P03923, whole entry, looked up: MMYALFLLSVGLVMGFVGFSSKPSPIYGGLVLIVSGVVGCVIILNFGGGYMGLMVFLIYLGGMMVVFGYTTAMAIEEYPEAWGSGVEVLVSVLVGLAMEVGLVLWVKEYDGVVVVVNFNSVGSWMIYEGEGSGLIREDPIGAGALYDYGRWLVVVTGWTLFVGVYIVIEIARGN
UniProt P00414, whole entry, looked up: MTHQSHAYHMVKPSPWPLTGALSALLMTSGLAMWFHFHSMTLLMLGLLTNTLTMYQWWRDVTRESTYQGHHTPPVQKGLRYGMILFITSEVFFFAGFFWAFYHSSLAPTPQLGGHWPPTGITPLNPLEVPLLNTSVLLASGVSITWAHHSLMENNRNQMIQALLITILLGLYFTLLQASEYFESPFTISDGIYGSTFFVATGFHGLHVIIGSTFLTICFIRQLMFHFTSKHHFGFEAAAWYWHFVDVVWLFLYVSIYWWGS
UniProt Q9NYA4: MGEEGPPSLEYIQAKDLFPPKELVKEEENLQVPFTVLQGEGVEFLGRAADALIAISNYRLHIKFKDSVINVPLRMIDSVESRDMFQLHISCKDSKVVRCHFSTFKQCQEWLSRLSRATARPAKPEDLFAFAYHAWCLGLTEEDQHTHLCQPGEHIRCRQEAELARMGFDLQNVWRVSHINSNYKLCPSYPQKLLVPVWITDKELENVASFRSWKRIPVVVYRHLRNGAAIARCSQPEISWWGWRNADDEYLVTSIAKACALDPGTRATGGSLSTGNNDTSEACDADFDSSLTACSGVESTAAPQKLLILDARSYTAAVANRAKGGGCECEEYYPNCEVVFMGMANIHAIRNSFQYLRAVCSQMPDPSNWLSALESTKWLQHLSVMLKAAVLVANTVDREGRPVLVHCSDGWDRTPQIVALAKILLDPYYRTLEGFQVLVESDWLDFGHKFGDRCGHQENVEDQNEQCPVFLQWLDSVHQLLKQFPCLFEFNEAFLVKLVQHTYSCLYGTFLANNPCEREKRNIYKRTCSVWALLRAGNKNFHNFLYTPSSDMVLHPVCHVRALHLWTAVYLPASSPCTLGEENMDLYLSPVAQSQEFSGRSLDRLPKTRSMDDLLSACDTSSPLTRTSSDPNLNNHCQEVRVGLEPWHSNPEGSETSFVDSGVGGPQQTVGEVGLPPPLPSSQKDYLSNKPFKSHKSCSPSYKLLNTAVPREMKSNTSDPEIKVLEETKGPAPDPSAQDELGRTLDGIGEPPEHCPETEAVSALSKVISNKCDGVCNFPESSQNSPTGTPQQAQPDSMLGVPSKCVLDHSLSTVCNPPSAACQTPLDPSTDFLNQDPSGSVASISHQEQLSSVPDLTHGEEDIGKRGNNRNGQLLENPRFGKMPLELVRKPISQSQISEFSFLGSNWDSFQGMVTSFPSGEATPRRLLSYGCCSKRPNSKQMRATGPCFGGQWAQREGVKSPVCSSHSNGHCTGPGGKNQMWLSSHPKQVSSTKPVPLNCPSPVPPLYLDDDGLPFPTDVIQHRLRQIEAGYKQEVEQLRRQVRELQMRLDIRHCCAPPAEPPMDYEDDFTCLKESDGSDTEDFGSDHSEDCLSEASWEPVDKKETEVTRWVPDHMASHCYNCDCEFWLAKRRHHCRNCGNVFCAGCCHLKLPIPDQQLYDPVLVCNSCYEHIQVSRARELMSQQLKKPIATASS
UniProt Q96DP5: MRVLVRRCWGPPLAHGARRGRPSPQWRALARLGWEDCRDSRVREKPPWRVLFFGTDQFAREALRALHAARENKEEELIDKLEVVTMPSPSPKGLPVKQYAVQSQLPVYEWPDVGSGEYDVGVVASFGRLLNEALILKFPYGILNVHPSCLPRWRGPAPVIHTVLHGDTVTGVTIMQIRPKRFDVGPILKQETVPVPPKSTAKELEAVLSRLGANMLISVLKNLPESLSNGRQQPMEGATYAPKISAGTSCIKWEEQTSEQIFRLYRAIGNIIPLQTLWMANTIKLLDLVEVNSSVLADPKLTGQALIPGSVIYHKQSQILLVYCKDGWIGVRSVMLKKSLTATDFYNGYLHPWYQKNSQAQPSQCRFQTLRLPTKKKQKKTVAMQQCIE
UniProt Q8N5Y2: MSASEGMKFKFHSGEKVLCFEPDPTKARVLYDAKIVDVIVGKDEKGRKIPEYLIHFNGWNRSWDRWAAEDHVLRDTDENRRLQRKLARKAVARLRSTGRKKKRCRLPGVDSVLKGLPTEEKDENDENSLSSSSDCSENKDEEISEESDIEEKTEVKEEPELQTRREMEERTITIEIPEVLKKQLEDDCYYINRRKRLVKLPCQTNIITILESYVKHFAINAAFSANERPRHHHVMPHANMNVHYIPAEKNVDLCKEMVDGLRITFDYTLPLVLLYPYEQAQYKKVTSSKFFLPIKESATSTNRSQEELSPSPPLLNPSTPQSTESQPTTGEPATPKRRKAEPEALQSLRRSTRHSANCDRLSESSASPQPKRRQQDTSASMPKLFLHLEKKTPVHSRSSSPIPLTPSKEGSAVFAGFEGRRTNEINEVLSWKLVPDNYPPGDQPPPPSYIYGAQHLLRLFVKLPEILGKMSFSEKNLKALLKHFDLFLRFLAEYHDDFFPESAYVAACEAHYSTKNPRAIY
UniProt P55157: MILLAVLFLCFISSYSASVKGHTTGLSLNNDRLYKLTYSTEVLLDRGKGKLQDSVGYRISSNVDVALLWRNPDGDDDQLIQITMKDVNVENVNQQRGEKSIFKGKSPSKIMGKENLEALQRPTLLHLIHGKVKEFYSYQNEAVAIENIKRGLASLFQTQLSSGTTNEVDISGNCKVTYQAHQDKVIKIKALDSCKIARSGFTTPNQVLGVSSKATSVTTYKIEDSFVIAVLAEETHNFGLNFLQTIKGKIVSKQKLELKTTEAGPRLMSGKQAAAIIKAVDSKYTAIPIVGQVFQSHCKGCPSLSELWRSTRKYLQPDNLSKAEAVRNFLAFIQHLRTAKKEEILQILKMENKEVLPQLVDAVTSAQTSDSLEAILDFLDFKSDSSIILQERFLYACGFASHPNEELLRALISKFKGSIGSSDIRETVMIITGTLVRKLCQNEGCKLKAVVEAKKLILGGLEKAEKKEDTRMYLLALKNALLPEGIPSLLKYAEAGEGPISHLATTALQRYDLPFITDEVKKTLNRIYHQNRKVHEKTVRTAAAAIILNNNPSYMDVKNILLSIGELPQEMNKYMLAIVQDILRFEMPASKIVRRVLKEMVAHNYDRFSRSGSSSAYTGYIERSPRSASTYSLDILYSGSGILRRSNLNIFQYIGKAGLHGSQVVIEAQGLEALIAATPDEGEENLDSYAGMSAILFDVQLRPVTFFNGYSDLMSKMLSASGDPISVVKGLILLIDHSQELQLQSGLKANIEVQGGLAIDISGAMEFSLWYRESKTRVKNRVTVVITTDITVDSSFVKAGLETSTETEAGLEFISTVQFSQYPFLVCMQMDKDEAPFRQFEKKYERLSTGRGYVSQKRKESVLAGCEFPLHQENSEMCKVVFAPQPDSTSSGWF

Assays:
Test in all cases: log2 fold change, soluble protein after heating vs DMSO (PISA); higher = thermal stabilisation; K562 lysate, 10 uM; active = over 0.2 and 3.5 SD of the protein, either way, in both replicates (recomputed)
[1] = compound: C#Cc1cccc(Nc2ncnc3cc(OCCOC)c(OCCOC)cc23)c1 [erlotinib]
Outline: (§1)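 Quantification was by TMTpro 16plex LC-MS/MS with equalised channel sums, applied to the supernatant after 21,000xg for 90 min. Samples were crude K562 extract at 1 mg/mL protein in PBS pH 7.4 with 1 mM MgCl2, treated with 10 μM compound for 30 min, heated for 3 min across 48°C-58°C, pooled and brought to 0.5% NP-40 at 4°C. Values are log-two fold changes in thermal stability relative to solvent controls, from duplicates.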

[2] = compound: C/C(=N\NC(=O)C1=CC(=CC=C1)S(=O)(=O)N2CCOCC2)/C3=C(C=CC(=C3)Cl)O
Outline: as §1

[3] = compound: C1=CC(=CC=C1C2=NC3=C(N2)C=C(C=C3)C(=O)N)OC4=CC=C(C=C4)Cl
Outline: as §1

[4] = compound: C1=CC2=C(C=CC(=C2)/C=C\3/C(=O)NC(=NCC4=CC=CS4)S3)N=C1
Outline: as §1

[5] = compound: C1=CC=C(C=C1)C2=NC(=C(N2)C3=CC=NC=C3)C4=CC(=C(C=C4)Cl)O
Outline: as §1

[6] = compound: C1=CC=C2C(=C1)C3=NNC4=CC=CC(=C43)C2=O
Outline: as §1

[7] = compound: C1CCN(C1)C(=O)NC2=CC=CC(=C2)NC3=NC=C(C(=N3)NCCC4=CN=CN4)Br
Outline: as §1

[8] = compound: C1CN(CCC1(CC2=CC=C(C=C2)Cl)N)C3=NC=NC4=C3C=CN4
Outline: as §1

[9] = compound: C1COCCN1CCN2C3=CC=CC=C3N=C2NC(=O)C4=CC(=CC=C4)[N+](=O)[O-] [IRAK-1-4 Inhibitor I]
Outline: as §1

[10] = compound: CC(=O)c1cnc2ccc(-c3cc(Cl)c(O)c(Cl)c3)nc2c1N[C@H]1CC[C@H](CN(C)C)CC1
Outline: as §1

[11] = compound: CC(C)(C)Cn1c(N)nc2ccc(-c3[nH]c(C(C)(C)C)nc3-c3ccc(F)cc3)nc21 [ralimetinib]
Outline: as §1

[12] = compound: CC(C)(O)CC(=O)NCCn1ccc2ncnc(Nc3ccc(Oc4cccc(C(F)(F)F)c4)c(Cl)c3)c21
Outline: as §1

[13] = compound: CC(C)C1=C2N=C(C=C(N2N=C1)NCC3=CC=CC=C3)NCCCCCCN
Outline: as §1

[14] = compound: CC1=C(C(CC(=O)N1)C2=CC=C(C=C2)C(F)(F)F)C(=O)NC3=C(C=C4C(=C3)C=NN4)F
Outline: as §1

[15] = compound: CC1=C(C2=C(C=C1)C(=O)C3=CC=CC=C3N2CCCN)C
Outline: as §1

[16] = compound: CC1=C(C=C(C=C1)NC(=O)C2=CC(=CC=C2)C(C)(C)C#N)NC3=CC4=C(C=C3)N=CN(C4=O)C
Outline: as §1

[17] = compound: CC1=C(C=C(C=C1)NC(=O)C2=CC(=CC=C2)N(C)C)NC(=O)C3=CC=C(C=C3)O
Outline: as §1

[18] = compound: CC1=CC=C(C=C1)SC2=C3C=C(SC3=CN=C2)C(=O)N
Outline: as §1

[19] = compound: C1=CC2=NC=CN=C2C=C1/C=C/3\C(=O)NC(=O)S3
Outline: as §1

[20] = compound: C=CC(=O)N1CCC[C@@H](n2nc(-c3ccc(Oc4ccccc4)cc3)c3c(N)ncnc32)C1 [ibrutinib]
Outline: as §1

Measured: log2 fold change

MRPS2 (UniProt Q9Y399)
inactive: [1] -0.072 | [2] 0.025 | [3] -0.023 | [4] 0.038 | [5] 0.023 | [6] 0.03 | [7] 0.03 | [8] -0.031 | [9] -0.008 | [10] 0.013 | [11] 0.027 | [12] 0.051 | [13] 0.007 | [14] 0 | [15] -0.001 | [16] 0.004 | [17] 0.025 | [18] 0.029

MTIF3 (UniProt Q9H2K0)
inactive: [1] -0.037 | [2] -0.139 | [3] 0.007 | [4] 0.006 | [19] -0.012 | [5] -0.025 | [6] -0.05 | [9] -0.044 | [20] 0.02 | [10] -0.001 | [11] -0.031 | [12] -0.023 | [13] -0.088 | [14] -0.049 | [15] 0.011 | [17] -0.019 | [18] -0.049

MT-ND6 (UniProt P03923)
inactive: [1] 0.039 | [3] 0.009 | [5] 0.048 | [9] -0.044 | [10] -0.06 | [11] -0.128 | [12] -0.165 | [13] -0.159 | [16] 0.076 | [17] 0.083 | [18] -0.064

MTURN (UniProt Q8N3F0)
inactive: [5] 0.01 | [7] 0.104 | [8] -0.025 | [9] -0.011 | [11] 0.001 | [12] -0.022 | [15] 0.043 | [16] 0.026 | [17] -0.013

MT-CO3 (UniProt P00414)
inactive: [2] 0.034 | [4] 0.062 | [6] 0.049 | [15] 0.149

MTMR4 (UniProt Q9NYA4)
inactive: [1] 0.054 | [2] 0.213 | [3] -0.122 | [4] 0.018 | [5] -0.091 | [6] -0.35 | [9] -0.002 | [10] -0.011 | [11] -0.029 | [12] -0.07 | [13] 0.049 | [14] 0.062 | [15] 0.006 | [16] -0.162 | [17] 0.031 | [18] -0.017

MTFMT (UniProt Q96DP5)
inactive: [1] 0 | [3] 0.08 | [10] -0.003 | [13] -0.072 | [14] 0.209 | [15] -0.215 | [16] -0.022 | [18] -0.343

MRPS21 (UniProt P82921)
inactive: [2] 0.049 | [4] 0.036 | [19] -0.051 | [6] -0.077 | [7] 0.022 | [8] -0.119 | [20] -0.277 | [10] -0.029 | [14] 0.208 | [15] -0.117 | [16] 0.081 | [18] 0.181

MRPL34 (UniProt Q9BQ48)
inactive: [19] -0.017 | [7] -0.002 | [8] -0.137 | [20] 0.047 | [10] -0.078 | [15] -0.019 | [16] 0.044 | [18] 0.104

MSL3 (UniProt Q8N5Y2)
inactive: [1] 0.003 | [2] 0.019 | [3] 0.004 | [4] -0.01 | [5] 0.02 | [6] -0.038 | [7] 0.03 | [8] 0.057 | [9] -0.012 | [11] 0.084 | [12] -0.099 | [13] -0.066 | [14] 0.104 | [15] -0.175 | [16] 0.039 | [17] -0.005

MTHFD1 (UniProt V9GZ32)
inactive: [10] 0.045 | [14] -0.18 | [18] 0.088

MTTP (UniProt P55157)
inactive: [19] -0.107 | [20] -0.269

MRPS14 (UniProt O60783)
inactive: [2] -0.061 | [4] 0.305 | [19] 0 | [5] -0.057 | [6] -0.007 | [7] 0.014 | [8] 0.034 | [9] -0.084 | [20] -0.088 | [10] 0.056 | [11] 0.048 | [12] -0.049 | [14] 0.023 | [16] 0.098 | [17] 0.211 | [18] -0.015

MRPL30 isoform 2 (UniProt Q8TCC3)
inactive: [1] -0.004 | [3] -0.01 | [19] -0.037 | [5] -0.03 | [7] 0.067 | [8] 0.015 | [9] 0.015 | [20] 0.01 | [10] 0.043 | [11] 0.04 | [12] -0.084 | [13] 0 | [14] 0 | [15] -0.037 | [16] 0.02 | [17] -0.006 | [18] 0.087

MRPS15 (UniProt P82914)
inactive: [1] 0.06 | [3] -0.011 | [19] 0.004 | [5] -0.029 | [7] -0.075 | [8] -0.016 | [9] -0.022 | [20] -0.053 | [10] -0.072 | [11] 0.039 | [12] -0.019 | [13] 0.032 | [14] 0.018 | [15] -0.152 | [16] 0.02 | [17] 0.048 | [18] -0.141

Pulled one by one from above, 2 records:
MTFMT (UniProt Q96DP5)
inactive: [1] 0 | [3] 0.08 | [10] -0.003 | [13] -0.072 | [14] 0.209 | [15] -0.215 | [16] -0.022 | [18] -0.343

MTHFD1 (UniProt V9GZ32)
inactive: [10] 0.045 | [14] -0.18 | [18] 0.088
